Reference: the supplement of paper PMC8728848
The other results are listed elsewhere or left out.

Experiments:
Experiment in all cases: glycan array binding signal (z-score within array); higher = stronger binding
Settings in all cases: glycan notation: IUPAC condensed, linker removed
Fuc(a1-2)Gal = target: Fuc(a1-2)Gal
In short: (§1)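 The binding signal is a Z-score computed within each array. Data were drawn from 3228 arrays in the Consortium for Functional Glycomics database, restricted to those with a known protein sequence. Scores were averaged over arrays of the same protein sequence at different concentrations or buffers, and over linkers, and negative values can be taken as non-binding.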

Fuc(a1-2)Gal(b1-3)GalNAc = target: Fuc(a1-2)Gal(b1-3)GalNAc
In short: as §1

[1] = target: Fuc(a1-2)Gal(b1-3)GalNAc(b1-3)Gal
In short: as §1

[2] = target: Fuc(a1-2)Gal(b1-3)GalNAc(b1-3)Gal(a1-4)Gal(b1-4)Glc
In short: as §1

[3] = target: Fuc(a1-2)Gal(b1-3)GalNAc(b1-4)[Neu5Ac(a2-3)]Gal(b1-4)Glc
In short: as §1

Fuc(a1-2)Gal(b1-3)GlcNAc = target: Fuc(a1-2)Gal(b1-3)GlcNAc
In short: as §1

[4] = target: Fuc(a1-2)Gal(b1-3)GlcNAc(b1-2)Man(a1-3)[Fuc(a1-2)Gal(b1-3)GlcNAc(b1-2)Man(a1-6)]Man(b1-4)GlcNAc(b1-4)GlcNAc
In short: as §1

[5] = target: Fuc(a1-2)Gal(b1-3)GlcNAc(b1-3)Gal(b1-4)Glc
In short: as §1

[6] = target: Fuc(a1-2)Gal(b1-3)GlcNAc(b1-3)[Gal(b1-4)[Fuc(a1-3)]GlcNAc(b1-6)]Gal(b1-4)Glc
In short: as §1

[7] = target: Fuc(a1-2)Gal(b1-3)[Fuc(a1-4)]GlcNAc
In short: as §1

[8] = target: Fuc(a1-2)Gal(b1-3)[Fuc(a1-4)]GlcNAc(b1-2)Man(a1-3)[Fuc(a1-2)Gal(b1-3)[Fuc(a1-4)]GlcNAc(b1-2)Man(a1-6)]Man(b1-4)GlcNAc(b1-4)GlcNAc
In short: as §1

Fuc(a1-2)Gal(b1-4)Glc = target: Fuc(a1-2)Gal(b1-4)Glc
In short: as §1

Fuc(a1-2)Gal(b1-4)Glc6S = target: Fuc(a1-2)Gal(b1-4)Glc6S
In short: as §1

Fuc(a1-2)Gal(b1-4)GlcNAc = target: Fuc(a1-2)Gal(b1-4)GlcNAc
In short: as §1

[9] = target: Fuc(a1-2)Gal(b1-4)GlcNAc(b1-2)Man(a1-3)[Fuc(a1-2)Gal(b1-4)GlcNAc(b1-2)Man(a1-6)]Man(b1-4)GlcNAc(b1-4)GlcNAc
In short: as §1

[10] = target: Fuc(a1-2)Gal(b1-4)GlcNAc(b1-3)Gal(b1-4)GlcNAc
In short: as §1

[11] = target: Fuc(a1-2)Gal(b1-4)GlcNAc(b1-3)Gal(b1-4)GlcNAc(b1-3)Gal(b1-4)GlcNAc
In short: as §1

[12] = target: Fuc(a1-2)Gal(b1-4)GlcNAc6S
In short: as §1

[13] = target: Fuc(a1-2)Gal(b1-4)[Fuc(a1-3)]GlcNAc
In short: as §1

[14] = target: Fuc(a1-2)Gal(b1-4)[Fuc(a1-3)]GlcNAc(b1-2)Man(a1-3)[Fuc(a1-2)Gal(b1-4)[Fuc(a1-3)]GlcNAc(b1-2)Man(a1-6)]Man(b1-4)GlcNAc(b1-4)GlcNAc
In short: as §1

[15] = target: Fuc(a1-2)Gal(b1-4)[Fuc(a1-3)]GlcNAc(b1-3)Gal(b1-4)[Fuc(a1-3)]GlcNAc
In short: as §1

[16] = target: Fuc(a1-2)Gal(b1-4)[Fuc(a1-3)]GlcNAc(b1-3)Gal(b1-4)[Fuc(a1-3)]GlcNAc(b1-3)Gal(b1-4)[Fuc(a1-3)]GlcNAc
In short: as §1

Fuc(a1-2)Gal6S(b1-4)Glc = target: Fuc(a1-2)Gal6S(b1-4)Glc
In short: as §1

[17] = target: Fuc(a1-2)Gal6S(b1-4)Glc6S
In short: as §1

[18] = target: Fuc(a1-2)Gal6S(b1-4)GlcNAc
In short: as §1

Fuc(a1-2)[Gal(a1-3)]Gal = target: Fuc(a1-2)[Gal(a1-3)]Gal
In short: as §1

[19] = target: Fuc(a1-2)[Gal(a1-3)]Gal(b1-3)GlcNAc
In short: as §1

[20] = target: Fuc(a1-2)[Gal(a1-3)]Gal(b1-3)GlcNAc(b1-2)Man(a1-3)[Fuc(a1-2)[Gal(a1-3)]Gal(b1-3)GlcNAc(b1-2)Man(a1-6)]Man(b1-4)GlcNAc(b1-4)GlcNAc
In short: as §1

[21] = target: Fuc(a1-2)[Gal(a1-3)]Gal(b1-4)Glc
In short: as §1

[22] = target: Fuc(a1-2)[Gal(a1-3)]Gal(b1-4)GlcNAc
In short: as §1

[23] = target: Fuc(a1-2)[Gal(a1-3)]Gal(b1-4)GlcNAc(b1-2)Man(a1-3)[Fuc(a1-2)[Gal(a1-3)]Gal(b1-4)GlcNAc(b1-2)Man(a1-6)]Man(b1-4)GlcNAc(b1-4)GlcNAc
In short: as §1

[24] = target: Fuc(a1-2)[Gal(a1-3)]Gal(b1-4)[Fuc(a1-3)]GlcNAc
In short: as §1

[25] = target: Fuc(a1-2)[Gal(a1-4)]Gal(b1-4)GlcNAc
In short: as §1

[26] = target: Fuc(a1-2)[GalNAc(a1-3)]Gal
In short: as §1

[27] = target: Fuc(a1-2)[GalNAc(a1-3)]Gal(b1-3)GlcNAc
In short: as §1

[28] = target: Fuc(a1-2)[GalNAc(a1-3)]Gal(b1-3)GlcNAc(b1-2)Man(a1-3)[Fuc(a1-2)[GalNAc(a1-3)]Gal(b1-3)GlcNAc(b1-2)Man(a1-6)]Man(b1-4)GlcNAc(b1-4)GlcNAc
In short: as §1

[29] = target: Fuc(a1-2)[GalNAc(a1-3)]Gal(b1-4)Glc
In short: as §1

B1: PP2A1 (Arabidopsis thaliana) (protein)
chain: MFRNQDSKYLIPVQKEAPPVTTLPMKASTVKSPHNCEAILRDADPPISLSSVNLSEQLRSGVFLKPKKQIKYWVDERNSNCFMLFAKNLSITWSDDVNYWTWFTEKESPNENVEAVGLKNVCWLDITGKFDTRNLTPGIVYEVVFKVKLEDPAYGWDTPVNLKLVLPNGKEKPQEKKVSLRELPRYKWVDVRVGEFVPEKSAAGEITFSMYEHAAGVWKKGLSLKGVAIRPKQHHHHHH
glycan array binding signal (z-score) (Fuc(a1-2)Gal): -0.212
glycan array binding signal (z-score) (Fuc(a1-2)Gal(b1-3)GalNAc): -0.262
glycan array binding signal (z-score) [1]: -0.056
glycan array binding signal (z-score) [2]: -0.589
glycan array binding signal (z-score) [3]: -0.487
glycan array binding signal (z-score) (Fuc(a1-2)Gal(b1-3)GlcNAc): -0.319
glycan array binding signal (z-score) [4]: 0.319
glycan array binding signal (z-score) [5]: -0.183
glycan array binding signal (z-score) [6]: -0.222
glycan array binding signal (z-score) [7]: -0.217
glycan array binding signal (z-score) [8]: 1.26
glycan array binding signal (z-score) (Fuc(a1-2)Gal(b1-4)Glc): -0.059
glycan array binding signal (z-score) (Fuc(a1-2)Gal(b1-4)Glc6S): 0.159
glycan array binding signal (z-score) (Fuc(a1-2)Gal(b1-4)GlcNAc): -0.545
glycan array binding signal (z-score) [9]: 0.48
glycan array binding signal (z-score) [10]: -0.347
glycan array binding signal (z-score) [11]: -0.309
glycan array binding signal (z-score) [12]: -0.023
glycan array binding signal (z-score) [13]: -0.286
glycan array binding signal (z-score) [14]: 0.66
glycan array binding signal (z-score) [15]: -0.471
glycan array binding signal (z-score) [16]: -0.237
glycan array binding signal (z-score) (Fuc(a1-2)Gal6S(b1-4)Glc): 0.434
glycan array binding signal (z-score) [17]: 0.934
glycan array binding signal (z-score) [18]: 0.065
glycan array binding signal (z-score) (Fuc(a1-2)[Gal(a1-3)]Gal): 0.071
glycan array binding signal (z-score) [19]: -0.478
glycan array binding signal (z-score) [20]: 0.483
glycan array binding signal (z-score) [21]: -0.572
glycan array binding signal (z-score) [22]: -0.403
glycan array binding signal (z-score) [23]: 0.586
glycan array binding signal (z-score) [24]: -0.138
glycan array binding signal (z-score) [25]: -0.507
glycan array binding signal (z-score) [26]: -0.564
glycan array binding signal (z-score) [27]: -0.107
glycan array binding signal (z-score) [28]: 0.053
glycan array binding signal (z-score) [29]: -0.724
